Record: PubChem BioAssay AID1508588 (Peter MacCallum Cancer Centre, 2020)
The deposit covers about 18,000 reagents; this is a part drawn at random. 790 of all reagents (4.4%) count as active. 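Calls rest on a combination of fold-change classes in drug and vehicle arms, not all shown here.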

Assay: 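Which gene losses make BRAF-mutant melanoma cells more responsive to vemurafenib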 (primary screen)
Cell system: human WM266.4 melanoma cells (BRAF V600 mutant)
Reagents: siRNA pool against human genes, 40 nM
Timing: 96 h from transfection to read-out
Conditions: vemurafenib 300 nM (about IC25), added 48 h after transfection, for 48 h; comparison arm got DMSO vehicle only
Read-out: 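Cell gain (DAPI nuclei at end minus before drug, mean of two replicates) and medium lactate by absorbance per cell, both as ratio to non-targeting siRNA, also grouped into fold-change classes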
Direction: cell gain with vemurafenib: higher = more cell gain than with non-targeting siRNA; lactate per cell with vemurafenib: higher = more lactate made per cell
Active means: 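Enhancement is called by pairing each knock-down's vehicle-arm and drug-arm fold-change classes for viability or glycolysis; which class combinations qualify is not given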
Meaning of the calls: active = enhances vemurafenib effect; inactive = no enhancement seen

SUPT16H showed cell gain with vemurafenib 0.66; lactate per cell with vemurafenib 0.69; active.
Depletion of TRMT61A resulted in: cell gain with vemurafenib 1; lactate per cell with vemurafenib 0.68; inactive.
Against NOXA1, the entry reads cell gain with vemurafenib 0.27; lactate per cell with vemurafenib 0.39; inactive.
H2AC17 gave cell gain with vemurafenib 0.3; lactate per cell with vemurafenib 0.17; active.
KIRREL3 gave cell gain with vemurafenib 0.27; lactate per cell with vemurafenib 0.49; active.
Against SLC22A5, the entry reads cell gain with vemurafenib 0.49; lactate per cell with vemurafenib 1.99; inactive.
Against BOLA2, the values are cell gain with vemurafenib 0.79; lactate per cell with vemurafenib 1.15; inactive.
GABRG2 gave cell gain with vemurafenib 0.7; lactate per cell with vemurafenib 0.46; inactive.
Silencing of CTXN3 gave: cell gain with vemurafenib 0.81; lactate per cell with vemurafenib 1.64; inactive.
With knock-down of PKIA the results were cell gain with vemurafenib 0.79; lactate per cell with vemurafenib 1.14; inactive.
GRK5 gave cell gain with vemurafenib 0.21; lactate per cell with vemurafenib 1.04; inactive.
For MUC21 the deposit lists cell gain with vemurafenib 0.58; lactate per cell with vemurafenib 0.86; inactive.
S100A7 gave cell gain with vemurafenib 0.5; lactate per cell with vemurafenib 1.73; inactive.
Depletion of SEC31A resulted in: cell gain with vemurafenib 1.05; lactate per cell with vemurafenib 0.48; inactive.
Depletion of RIOX2 resulted in: cell gain with vemurafenib 0.9; lactate per cell with vemurafenib 1.4; inactive.

Looked up above:
Result of PKIA under “Outcome”: inactive
Result of SEC31A under “Outcome”: inactive

The listing continues:
TCERG1L showed cell gain with vemurafenib 0.21; lactate per cell with vemurafenib 0.9; inactive.
For RAD50, the values are cell gain with vemurafenib 0.67; lactate per cell with vemurafenib 0.82; inactive.
Depletion of TSPYL2 gave: cell gain with vemurafenib 0.92; lactate per cell with vemurafenib 0.58; inactive.
After knock-down of HR, the screen gave cell gain with vemurafenib 0.95; lactate per cell with vemurafenib 0.74; inactive.
BCL2L11 gave cell gain with vemurafenib 0.45; lactate per cell with vemurafenib 0.9; inactive.
TNIP2 showed cell gain with vemurafenib 0.54; lactate per cell with vemurafenib 0.6; inactive.
After knock-down of MTHFD2, the screen gave cell gain with vemurafenib 0.85; lactate per cell with vemurafenib 0.73; inactive.
Against CCR2 the deposit lists cell gain with vemurafenib 0.9; lactate per cell with vemurafenib 0.38; inactive.
Against CYREN the deposit lists cell gain with vemurafenib 0.61; lactate per cell with vemurafenib 1; inactive.
OR52I2 showed cell gain with vemurafenib 0.56; lactate per cell with vemurafenib 0.49; inactive.
RPL27 scored cell gain with vemurafenib -0.04; lactate per cell with vemurafenib 1.64; inactive.
Against CD3G the deposit lists cell gain with vemurafenib 0.79; lactate per cell with vemurafenib 0.56; inactive.
